# For some assays here: HELM strings list residues between dots; [ac] is acetyl, [am] amide, other brackets name non-standard units.
# Legend:
# [1] = general procedure: Fmoc solid-phase peptide synthesis; Rink amide resin; DIC/Oxyma; conditions: whole synthesis, scale 200 umol
# [2] = general procedure: Fmoc solid-phase peptide synthesis; 2-Chlorotrityl chloride resin (1.14 mmol g-1) or Rink amide resin (0.3–0.49 mmol g-1); DIC/Oxyma; conditions: late stage modification step, on diselenide 1
# [3] = general procedure: Fmoc solid-phase peptide synthesis; Rink amide; DIC/Oxyma; conditions: whole synthesis, scale 50 µmol
substance,measurement,setting,value
[H2N-USPGYS-NH2]2,isolated yield,[1]; from theoretical resin loading of 200 umol,28%
same,isolated mass,[1],42.5 mg
"PEPTIDE1{[Sec].S.P.G.Y.S.[am]}|PEPTIDE2{[Ala_b].S.P.G.Y.S.[am]}$PEPTIDE1,PEPTIDE2,1:R3-1:R3$$$V2.0",step yield,[2],76%
[H2N-Sec-(PEG4)2-Arg8-CONH2]2 Diselenide,isolated mass,[3],25 mg
same,isolated yield,[3],42% yield

# From article PMC9653470 (2022)
